Assay results: PubChem BioAssay AID2685 (National Center for Advancing Translational Sciences (NCATS), 2010)
The list shows a part of the results. Further columns of the screen follow, without active or inactive calls. Compounds called inactive in the main read-out are mostly missing here. Words in brackets tell the shape of the fitted curve; partial curves, single points and poor fits give uncertain potencies.

Assay: qHTS Assay for Lipid Storage Modulators in Drosophila S3 Cells;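 as to cell number change: cells counted by Cell Tracker Red CMTPX staining in the red channel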
Settings: BODIPY lipid droplet fluorescence, 18-24 h; for cell number change: measured here: cell count max response, cells fed with added oleic acid
Outline: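 Laser-scanning cytometry quantifies lipid droplet accumulation (500–530 nm total intensity; droplet/cell object ratio) in oleic acid-fed (400 uM added) Drosophila S3 cells treated with a concentration series. 20 uM Triacsin C defined 100% inhibition.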

[1] = measured here: cell number channel AC50, cells fed with added oleic acid
[2] = measured here: lipid fluorescence (Fed channel) AC50, cells fed with added oleic acid

SMILES	cell number change [%]	AC50 [1]	AC50 [2]
Cc1cc([N+](=O)[O-])ccc1NC(=S)NC(=O)C(c1ccccc1)c1ccccc1	8.43	0.146 µM [rising, full curve]	
CCn1c(Sc2ccc([N+](=O)[O-])cn2)nnc1-c1ccco1	-11.5		4.11 µM [falling, single point]
COC(=O)[C@@]12CCCCN1[C@H](c1ccc(SC3CCCCC3)cc1)[C@@H]1C(=O)N(C)C(=O)[C@@H]12	-11.7		3.66 µM [falling, single point]
Cc1ccc(-c2n[nH]c(=O)c3ccccc23)cc1S(=O)(=O)NCCN1CCOCC1	-10.6		
O=C1C(=O)N(CCN2CCOCC2)C(c2ccc(F)cc2)/C1=C(/O)c1ccc(S(=O)(=O)N2CCOCC2)cc1 (stereo not drawn)	-1.26		29.1 µM [rising, single point]
CC(=O)N(CN1C(=O)CCC1=O)c1cccc(Cl)c1	-85.6	20.6 µM [falling, partial curve]	1.46 µM [falling, full curve]
CC1Sc2ccc(S(=O)(=O)CCC(=O)NCc3cccs3)cc2NC1=O (stereo not drawn)	-4.72		
N#CC1(NC(=O)COC(=O)c2ccc(Cl)nc2)CCCCC1	-50	3.66 µM [falling, full curve]	29.1 µM [rising, single point]
CCn1cc(CN2CCc3c([nH]c4ccccc34)C2c2cccc(O)c2)c(C)n1 (stereo not drawn)	-3.65		4.11 µM [falling, full curve, poor fit]
COc1ccccc1NS(=O)(=O)c1ccc(/C=C/C(=O)O)cc1	-1.76		0.082 µM [falling, full curve, poor fit]
C/C(=C\c1ccccc1)C(=O)NCCCn1ccnc1	49.5	0.116 µM [rising, full curve, poor fit]	
CC1(C)CC(=O)C(N=Nc2cccc([N+](=O)[O-])c2)=C(O)C1	-22.8		5.8 µM [falling, full curve, poor fit]
CCC(CC)C(=O)Nc1nnc(SCC(=O)NC2CC2)s1	3.33		
CC(C)NS(=O)(=O)c1ccc(NC(=O)Cc2ccsc2)cc1	4.6		
COC(=O)c1cc(S(=O)(=O)NCc2ccccc2)c[nH]1	18.9		3.26 µM [rising, single point]
CCOc1ccccc1-n1c(CN2CCN(C(=O)c3ccco3)CC2)nc2ccccc2c1=O	2.26		0.82 µM [rising, partial curve]
c1ccc(Cn2c(-c3ccccc3)c[n+]3c2SCCC3)cc1	12.5		
CC(=O)c1c(C)[nH]c(C(=O)Nc2cc(F)ccc2C)c1C	-4.84		
COc1ccc(CCn2c(=O)[nH]c3cc(C(=O)NCCc4ccccc4)ccc3c2=O)cc1OC	16.3		0.461 µM [falling, full curve, poor fit]
COc1cccc(C(=O)Oc2ccc3c(C)cc(=O)oc3c2C(C)=O)c1	2.85		
CCN(C(=O)Cn1cnc2c1c(=O)n(C)c(=O)n2C)C1CCS(=O)(=O)C1 (stereo not drawn)	9.37		

SMILES	cell number change [%]	AC50 [1]	AC50 [2]
N#CCN(CC#N)C(=O)C1c2ccccc2Oc2ccccc21	1.38		
O=C1CCN(C(=O)Nc2ccccc2Cl)N1	-26.1		20.6 µM [falling, single point]
Cc1cccc(CSCc2ccc(C(=O)NCC3CCCO3)o2)c1 (stereo not drawn)	-22.5		4.11 µM [rising, single point]
O=C(c1cc(COc2ccc(F)cc2F)on1)N1CCN(C2CCCC2)C(=O)C1	27.2		2.91 µM [rising, full curve]
Cc1ccc(C(=O)O)cc1NC(=O)CSc1ncnc2sc3c(c12)CCC3	9.64		0.58 µM [falling, full curve]
CCOC(=O)N1CCN(C(=O)c2ccc3c(=O)n(-c4cc(OC)ccc4OC)c(=S)[nH]c3c2)CC1	3.09		2.59 µM [rising, single point]
O=C(NCC1COc2ccccc2O1)c1cn(Cc2ccc(F)cc2)nn1 (stereo not drawn)	35.2	29.1 µM [rising, single point]	29.1 µM [rising, single point]
O=C(CN(c1cccc(C(F)(F)F)c1)S(=O)(=O)c1ccc(Cl)c([N+](=O)[O-])c1)NCc1ccc(F)cc1	16.7		32.6 µM [falling, single point]
Cc1ccc(S(=O)(=O)N2CCCCC2)cc1NC(=O)c1ccc2c(=O)n3c(nc2c1)CCCCC3	28.9		1.84 µM [rising, partial curve]
COc1ccc(CN2CCNC(=O)C2CC(=O)N(C)CCC2CCOCC2)cc1OC (stereo not drawn)	13		
O=C(Nc1ccccc1N1CCCC1)C1=COCCO1	-0.55		
CCOC(=O)C1CCN(C(=O)CN2C(=O)c3ccccc3S2(=O)=O)CC1	-56.6	25.9 µM [falling, single point]	
COC(=O)c1cccc(C(=O)Nc2ccc(C)cc2Br)n1	54.3	20.6 µM [rising, single point]	29.1 µM [rising, single point]
Cc1cc(C)c2c(=O)n(CC(=O)N3CCC(Cc4ccccc4)CC3)sc2n1	-21.3		11.6 µM [falling, partial curve]
Fc1cccc(NCc2ccoc2)c1	-1.57		0.00517 µM [falling, full curve, poor fit]
CCCCOC(=O)C1C2C=C[C@]3(CN(C(C)c4ccc(OC)cc4)C(=O)[C@H]13)O2 (stereo partly drawn)	-56.3	29.1 µM [falling, single point]	3.66 µM [falling, full curve, poor fit]
CCC(C)Sc1nnc(CSc2nc3nc(C)cc(C)n3n2)o1 (stereo not drawn)	-6.84	6.51 µM [rising, single point]	
Cc1cccc2cc3c(nc12)SC(=NCC1CCCO1)N(Cc1ccco1)C3 (stereo not drawn)	-22.1		11.6 µM [falling, partial curve]
Nc1c(S(=O)(=O)c2cccs2)c2nc3ccccc3nc2n1/N=C/c1cccc(O)c1	-75.4	18.4 µM [falling, single point]	29.1 µM [falling, single point]
O=C(NCc1cccnc1)c1cccc(S(=O)(=O)N2CCOCC2)c1	-5.14		
O=C(NCCc1ccccc1)C1CCCN(S(=O)(=O)c2cccc3nonc23)C1 (stereo not drawn)	54.2	29.1 µM [rising, single point]	29.1 µM [rising, single point]

Molecules above that have a nitro group on carbon:
SMILES	cell number change [%]	AC50 [1]	AC50 [2]
Cc1cc([N+](=O)[O-])ccc1NC(=S)NC(=O)C(c1ccccc1)c1ccccc1	8.43	0.146 µM [rising, full curve]	
CCn1c(Sc2ccc([N+](=O)[O-])cn2)nnc1-c1ccco1	-11.5		4.11 µM [falling, single point]
CC1(C)CC(=O)C(N=Nc2cccc([N+](=O)[O-])c2)=C(O)C1	-22.8		5.8 µM [falling, full curve, poor fit]
O=C(CN(c1cccc(C(F)(F)F)c1)S(=O)(=O)c1ccc(Cl)c([N+](=O)[O-])c1)NCc1ccc(F)cc1	16.7		32.6 µM [falling, single point]

The list continues:

SMILES	cell number change [%]	AC50 [1]	AC50 [2]
COc1ccc(-c2cc(C(F)(F)F)n3nc(N)nc3n2)cc1	99.9	1.3 µM [rising, full curve]	1.84 µM [rising, partial curve]
COc1ccc(C(=O)c2c3ccc([N+](=O)[O-])cc3[n+]([O-])n2CCCC(N)=O)cc1	-31.9	20.6 µM [falling, single point]	0.0731 µM [rising, full curve, poor fit]
NC(=S)Nn1c(-c2ccccc2)nc2ccccc2c1=O	-58.7	25.9 µM [falling, single point]	23.1 µM [falling, single point]
COc1ccc(N2CCN(C3CCCN(C(=O)c4cccc(C)n4)C3)CC2)cc1 (stereo not drawn)	11.9	4.11 µM [rising, single point]	
O=C(Nc1ccc2oc(-c3ccccc3)nc2c1)C1CCCO1 (stereo not drawn)	24.6		0.651 µM [rising, full curve, poor fit]
O=C(Nc1ccncc1)c1cc(-c2cccc(Br)c2)nc2ccccc12			18.4 µM [rising, single point]
O=C(NCC1CC1)c1onc(CSc2ccncc2)c1C(=O)NCC1CC1	4.67		0.13 µM [rising, full curve, poor fit]
CC1(C2CC2)NC(=O)N(CC(=O)N2CCN(c3ccccc3Cl)CC2)C1=O (stereo not drawn)	-99.2	23.1 µM [falling, single point]	
COC(=O)C1CCCN1S(=O)(=O)c1ccc([N+](=O)[O-])cc1 (stereo not drawn)	5.57		
NC(=NCc1ccco1)NC(=O)c1ccccc1			29.1 µM [falling, single point]
Cc1ccccc1N(CC(N)=O)S(C)(=O)=O	-21.3	3.66 µM [falling, full curve, poor fit]	3.66 µM [falling, full curve]
Cc1cc(C(=O)COC(=O)Cc2ccc(Br)cc2)c(C)n1C	-35.9	29.1 µM [falling, single point]	2.91 µM [falling, partial curve]
O=C(NC1CC1)C1CCN(C(=O)c2ccc(Cl)cc2Cl)CC1	21.3		6.51 µM [falling, single point]
COc1ccc(OCC(=O)Nc2ccccc2O)cc1	-49.1	3.26 µM [falling, full curve]	18.4 µM [falling, single point]
COc1cc2ncnc(NCCCN3CCOCC3)c2cc1OC	47.8	29.1 µM [rising, single point]	
O=C(NCC1CCCN(Cc2nccs2)C1)c1cccc2ccccc12 (stereo not drawn)	24.3		
CCOC(=O)c1oc2cc(O)ccc2c(=O)c1-c1ccccc1OC	-11.8		0.411 µM [falling, full curve, poor fit]
CCOc1ccc(N(CC(=O)N2CCCC2)S(=O)(=O)c2ccc(Cl)cc2)cc1	21.8		0.116 µM [rising, single point]
O=C(CSc1ncn[nH]1)Nc1ccc([N+](=O)[O-])cc1Br	2.12		
